Where a chain is given by its changes, count along the chain named. Like-named read-outs stand apart in the source and are kept apart here. No constants are given. Whether binding was seen depends on the method and setting. Binding seen in cells or lysates may run through a third protein. Here binding means that the protein was enriched with, or labelled near, the bait; the list need not be complete. For some assays here: No binding means not detected with the bait.
T1: SF-TAP-DNAAF1 mutant (p.Phe191) (human) (UniProt Q8NEP3)
T1 sequence: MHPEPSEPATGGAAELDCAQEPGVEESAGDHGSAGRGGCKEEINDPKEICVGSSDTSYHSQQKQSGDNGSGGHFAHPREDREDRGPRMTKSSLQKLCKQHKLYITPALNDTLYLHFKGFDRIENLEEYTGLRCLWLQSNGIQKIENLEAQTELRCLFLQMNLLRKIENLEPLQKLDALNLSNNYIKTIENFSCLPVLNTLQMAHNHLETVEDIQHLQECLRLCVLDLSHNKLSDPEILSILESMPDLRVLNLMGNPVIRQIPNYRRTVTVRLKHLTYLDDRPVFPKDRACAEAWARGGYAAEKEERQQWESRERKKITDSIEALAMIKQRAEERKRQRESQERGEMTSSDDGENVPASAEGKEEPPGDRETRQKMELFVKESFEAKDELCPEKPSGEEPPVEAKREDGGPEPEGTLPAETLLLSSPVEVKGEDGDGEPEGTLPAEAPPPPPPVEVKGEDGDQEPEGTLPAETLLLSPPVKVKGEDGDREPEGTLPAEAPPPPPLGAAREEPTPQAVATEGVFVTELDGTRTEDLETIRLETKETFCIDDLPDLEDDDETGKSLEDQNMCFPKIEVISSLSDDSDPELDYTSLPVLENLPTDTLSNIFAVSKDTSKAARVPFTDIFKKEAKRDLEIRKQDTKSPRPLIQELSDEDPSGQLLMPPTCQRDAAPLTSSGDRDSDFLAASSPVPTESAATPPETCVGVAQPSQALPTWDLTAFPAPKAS

Amino acid sequences for entries named in this document (tags omitted). Residues count along the entry.
UniProt P68104: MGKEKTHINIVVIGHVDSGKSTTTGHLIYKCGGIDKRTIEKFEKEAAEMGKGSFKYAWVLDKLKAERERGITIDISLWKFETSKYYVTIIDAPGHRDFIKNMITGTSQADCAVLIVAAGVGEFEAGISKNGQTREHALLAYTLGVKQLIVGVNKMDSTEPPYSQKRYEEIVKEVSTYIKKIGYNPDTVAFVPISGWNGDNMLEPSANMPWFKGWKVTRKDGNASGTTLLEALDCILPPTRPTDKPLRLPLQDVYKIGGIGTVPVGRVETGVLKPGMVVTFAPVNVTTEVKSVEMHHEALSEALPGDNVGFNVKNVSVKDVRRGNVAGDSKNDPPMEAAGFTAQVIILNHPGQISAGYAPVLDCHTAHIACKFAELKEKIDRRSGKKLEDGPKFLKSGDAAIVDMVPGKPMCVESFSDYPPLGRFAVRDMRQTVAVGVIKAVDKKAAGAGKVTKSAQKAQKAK
UniProt P68371: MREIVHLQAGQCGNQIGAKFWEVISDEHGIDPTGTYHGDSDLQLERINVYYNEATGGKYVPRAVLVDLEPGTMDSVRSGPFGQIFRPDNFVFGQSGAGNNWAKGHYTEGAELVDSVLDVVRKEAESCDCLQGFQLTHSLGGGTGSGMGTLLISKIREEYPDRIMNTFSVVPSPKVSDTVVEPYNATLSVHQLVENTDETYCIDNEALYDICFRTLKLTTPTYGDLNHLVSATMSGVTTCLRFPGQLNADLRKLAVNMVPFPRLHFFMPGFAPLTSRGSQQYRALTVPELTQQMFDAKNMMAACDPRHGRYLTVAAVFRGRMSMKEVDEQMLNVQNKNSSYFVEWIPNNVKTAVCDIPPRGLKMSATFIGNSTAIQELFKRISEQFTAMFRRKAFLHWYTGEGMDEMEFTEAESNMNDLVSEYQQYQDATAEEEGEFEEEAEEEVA
UniProt P38646, residues 47-679: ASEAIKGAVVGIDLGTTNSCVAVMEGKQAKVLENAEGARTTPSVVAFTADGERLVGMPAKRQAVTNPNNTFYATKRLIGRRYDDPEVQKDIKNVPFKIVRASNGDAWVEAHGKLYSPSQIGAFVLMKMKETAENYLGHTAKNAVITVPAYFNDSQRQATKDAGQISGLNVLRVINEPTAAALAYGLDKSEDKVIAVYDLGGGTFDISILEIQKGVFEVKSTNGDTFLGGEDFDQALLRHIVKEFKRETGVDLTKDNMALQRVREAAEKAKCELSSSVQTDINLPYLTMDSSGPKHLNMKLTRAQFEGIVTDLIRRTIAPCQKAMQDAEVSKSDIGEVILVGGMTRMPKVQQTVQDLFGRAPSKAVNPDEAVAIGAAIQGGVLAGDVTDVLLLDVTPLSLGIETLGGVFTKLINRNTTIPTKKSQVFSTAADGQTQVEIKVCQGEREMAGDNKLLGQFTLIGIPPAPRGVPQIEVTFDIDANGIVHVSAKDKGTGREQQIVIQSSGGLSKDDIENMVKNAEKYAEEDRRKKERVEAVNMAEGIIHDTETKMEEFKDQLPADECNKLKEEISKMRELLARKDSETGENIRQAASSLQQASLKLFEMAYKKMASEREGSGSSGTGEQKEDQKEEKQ
UniProt P11142: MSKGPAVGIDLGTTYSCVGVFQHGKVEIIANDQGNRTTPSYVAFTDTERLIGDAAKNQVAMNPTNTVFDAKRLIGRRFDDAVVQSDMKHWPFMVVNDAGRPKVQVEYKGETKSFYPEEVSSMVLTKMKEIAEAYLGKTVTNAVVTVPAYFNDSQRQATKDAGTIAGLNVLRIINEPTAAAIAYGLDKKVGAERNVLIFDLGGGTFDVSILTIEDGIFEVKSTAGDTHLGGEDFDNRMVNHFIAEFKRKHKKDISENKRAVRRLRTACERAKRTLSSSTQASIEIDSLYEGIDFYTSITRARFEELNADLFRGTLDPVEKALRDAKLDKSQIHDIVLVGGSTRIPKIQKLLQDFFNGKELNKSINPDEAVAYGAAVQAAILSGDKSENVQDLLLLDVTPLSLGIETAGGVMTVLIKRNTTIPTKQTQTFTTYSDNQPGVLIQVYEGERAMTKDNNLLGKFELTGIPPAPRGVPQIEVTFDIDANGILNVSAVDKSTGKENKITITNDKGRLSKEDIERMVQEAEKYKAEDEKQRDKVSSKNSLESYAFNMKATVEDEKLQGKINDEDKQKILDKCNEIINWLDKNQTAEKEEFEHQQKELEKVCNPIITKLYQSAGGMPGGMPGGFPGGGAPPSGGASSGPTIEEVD
UniProt P17066: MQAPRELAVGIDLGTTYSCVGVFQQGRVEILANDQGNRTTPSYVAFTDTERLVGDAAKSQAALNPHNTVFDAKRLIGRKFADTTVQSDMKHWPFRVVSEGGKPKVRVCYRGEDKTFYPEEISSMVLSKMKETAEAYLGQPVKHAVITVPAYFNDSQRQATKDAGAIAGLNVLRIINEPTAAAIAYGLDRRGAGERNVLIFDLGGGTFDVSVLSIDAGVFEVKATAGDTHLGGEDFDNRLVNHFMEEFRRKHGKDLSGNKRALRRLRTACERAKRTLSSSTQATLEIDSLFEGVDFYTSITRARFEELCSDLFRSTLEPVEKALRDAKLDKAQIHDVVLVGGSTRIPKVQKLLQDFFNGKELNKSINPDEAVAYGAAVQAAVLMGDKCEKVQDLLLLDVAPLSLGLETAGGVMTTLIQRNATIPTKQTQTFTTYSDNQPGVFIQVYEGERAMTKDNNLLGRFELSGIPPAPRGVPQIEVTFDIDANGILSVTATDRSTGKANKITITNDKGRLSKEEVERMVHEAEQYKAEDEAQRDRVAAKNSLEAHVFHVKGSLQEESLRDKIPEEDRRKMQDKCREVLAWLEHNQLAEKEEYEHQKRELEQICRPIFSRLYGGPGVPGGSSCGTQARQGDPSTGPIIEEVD
UniProt P25705, residues 44-553: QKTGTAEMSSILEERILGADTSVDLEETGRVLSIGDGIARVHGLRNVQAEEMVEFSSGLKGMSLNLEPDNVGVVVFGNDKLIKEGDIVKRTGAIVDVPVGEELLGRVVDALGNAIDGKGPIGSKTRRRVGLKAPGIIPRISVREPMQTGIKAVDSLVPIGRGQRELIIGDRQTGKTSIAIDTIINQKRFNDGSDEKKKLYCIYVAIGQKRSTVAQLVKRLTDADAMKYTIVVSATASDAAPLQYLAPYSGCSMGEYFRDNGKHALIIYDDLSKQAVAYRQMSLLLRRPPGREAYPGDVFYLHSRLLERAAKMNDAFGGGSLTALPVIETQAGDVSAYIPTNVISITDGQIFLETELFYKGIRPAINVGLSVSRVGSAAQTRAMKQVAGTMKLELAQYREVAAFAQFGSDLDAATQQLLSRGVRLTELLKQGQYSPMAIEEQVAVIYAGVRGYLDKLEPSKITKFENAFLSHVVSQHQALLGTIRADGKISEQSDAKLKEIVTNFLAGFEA
UniProt P68363: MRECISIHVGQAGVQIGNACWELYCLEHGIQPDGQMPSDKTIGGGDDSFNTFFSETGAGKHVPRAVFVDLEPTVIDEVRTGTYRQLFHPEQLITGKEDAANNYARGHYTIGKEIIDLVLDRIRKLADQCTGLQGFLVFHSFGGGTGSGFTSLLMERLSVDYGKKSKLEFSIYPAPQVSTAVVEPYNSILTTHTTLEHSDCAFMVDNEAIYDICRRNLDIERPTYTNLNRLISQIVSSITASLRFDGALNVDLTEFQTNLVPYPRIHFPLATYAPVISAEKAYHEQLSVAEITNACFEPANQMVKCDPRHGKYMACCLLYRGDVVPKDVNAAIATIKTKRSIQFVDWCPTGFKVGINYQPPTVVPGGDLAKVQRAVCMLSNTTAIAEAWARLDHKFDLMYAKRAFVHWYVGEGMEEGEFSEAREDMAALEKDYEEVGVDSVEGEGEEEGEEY
UniProt P07437: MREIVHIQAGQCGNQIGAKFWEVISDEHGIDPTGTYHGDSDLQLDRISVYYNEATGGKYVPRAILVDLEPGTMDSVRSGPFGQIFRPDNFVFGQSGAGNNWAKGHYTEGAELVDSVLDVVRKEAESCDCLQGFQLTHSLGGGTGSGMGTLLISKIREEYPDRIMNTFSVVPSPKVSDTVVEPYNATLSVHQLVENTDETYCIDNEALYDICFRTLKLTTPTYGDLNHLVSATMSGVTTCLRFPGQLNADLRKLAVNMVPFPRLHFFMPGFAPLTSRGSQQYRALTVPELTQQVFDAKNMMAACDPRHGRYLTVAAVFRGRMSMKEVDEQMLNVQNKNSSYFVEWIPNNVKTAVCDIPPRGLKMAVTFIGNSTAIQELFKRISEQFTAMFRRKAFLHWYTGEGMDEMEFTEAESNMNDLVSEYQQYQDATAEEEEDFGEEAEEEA
UniProt Q9Y265: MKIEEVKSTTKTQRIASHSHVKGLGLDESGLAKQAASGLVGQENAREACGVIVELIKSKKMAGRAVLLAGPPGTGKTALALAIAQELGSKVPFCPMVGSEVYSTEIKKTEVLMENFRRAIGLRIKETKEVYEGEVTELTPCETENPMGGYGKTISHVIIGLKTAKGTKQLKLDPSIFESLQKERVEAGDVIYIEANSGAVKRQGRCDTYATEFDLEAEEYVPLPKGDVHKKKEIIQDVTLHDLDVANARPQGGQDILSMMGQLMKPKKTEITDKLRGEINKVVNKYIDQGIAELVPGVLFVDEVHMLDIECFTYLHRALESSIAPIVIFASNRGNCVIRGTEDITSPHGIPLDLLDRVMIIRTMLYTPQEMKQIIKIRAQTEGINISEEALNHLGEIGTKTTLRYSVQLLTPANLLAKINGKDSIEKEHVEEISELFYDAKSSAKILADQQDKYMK
UniProt P0DMV8: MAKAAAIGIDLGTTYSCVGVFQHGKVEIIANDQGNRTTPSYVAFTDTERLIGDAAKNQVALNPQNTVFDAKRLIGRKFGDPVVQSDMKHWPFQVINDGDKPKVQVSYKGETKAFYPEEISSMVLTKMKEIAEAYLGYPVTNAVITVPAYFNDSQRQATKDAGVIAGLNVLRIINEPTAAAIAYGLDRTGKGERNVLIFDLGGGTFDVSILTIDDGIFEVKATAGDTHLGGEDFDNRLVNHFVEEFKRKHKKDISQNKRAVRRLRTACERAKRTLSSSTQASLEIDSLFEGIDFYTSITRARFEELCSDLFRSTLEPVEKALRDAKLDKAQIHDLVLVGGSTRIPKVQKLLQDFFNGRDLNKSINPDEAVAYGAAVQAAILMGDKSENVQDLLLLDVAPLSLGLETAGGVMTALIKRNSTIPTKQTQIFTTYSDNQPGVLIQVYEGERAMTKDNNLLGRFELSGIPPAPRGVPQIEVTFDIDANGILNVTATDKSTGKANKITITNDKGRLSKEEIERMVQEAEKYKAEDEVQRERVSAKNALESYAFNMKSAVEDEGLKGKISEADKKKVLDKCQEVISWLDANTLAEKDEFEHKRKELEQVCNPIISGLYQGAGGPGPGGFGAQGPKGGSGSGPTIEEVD
UniProt P11021, residues 19-654: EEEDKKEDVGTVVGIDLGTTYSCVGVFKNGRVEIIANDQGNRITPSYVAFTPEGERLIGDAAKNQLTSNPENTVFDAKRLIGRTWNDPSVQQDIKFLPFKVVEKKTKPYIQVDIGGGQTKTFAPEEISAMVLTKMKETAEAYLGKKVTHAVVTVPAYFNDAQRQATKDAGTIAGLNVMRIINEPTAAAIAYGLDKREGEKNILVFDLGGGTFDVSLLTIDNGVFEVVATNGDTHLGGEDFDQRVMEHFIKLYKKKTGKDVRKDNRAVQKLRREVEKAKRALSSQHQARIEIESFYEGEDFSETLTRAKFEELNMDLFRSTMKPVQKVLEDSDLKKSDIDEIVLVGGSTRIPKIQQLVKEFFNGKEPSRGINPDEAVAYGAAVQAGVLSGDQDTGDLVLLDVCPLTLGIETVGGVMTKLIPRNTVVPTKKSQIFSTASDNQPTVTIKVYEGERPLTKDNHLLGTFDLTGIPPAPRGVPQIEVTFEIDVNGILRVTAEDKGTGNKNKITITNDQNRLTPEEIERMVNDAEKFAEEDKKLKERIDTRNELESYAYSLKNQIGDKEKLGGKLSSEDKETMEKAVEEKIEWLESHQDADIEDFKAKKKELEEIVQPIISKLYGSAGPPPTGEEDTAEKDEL

T2: SF-TAP-DNAAF1 wild-type (p.Leu191) (human) (UniProt Q8NEP3)
T2 sequence: T1 sequence with F191L

B1: SUGT1 (protein, UniProt Q9Y2Z0 1-365)
chain: MAAAAAGTATSQRFFQSFSDALIDEDPQAALEELTKALEQKPDDAQYYCQRAYCHILLGNYCVAVADAKKSLELNPNNSTAMLRKGICEYHEKNYAAALETFTEGQKLDIETGFHRVGQAGLQLLTSSDPPALDSQSAGITGADANFSVWIKRCQEAQNGSESEVWTHQSKIKYDWYQTESQVVITLMIKNVQKNDVNVEFSEKELSALVKLPSGEDYNLKLELLHPIIPEQSTFKVLSTKIEIKLKKPEAVRWEKLEGQGDVPTPKQFVADVKNLYPSSSPYTRNWDKLVGEIKEEEKNEKLEGDAALNRLFQQIYSDGSDEVKRAMNKSFMESGGTVLSTNWSDVGKRKVEINPPDDMEWKKY

How the values were obtained:
Assay in all cases: affinity purification with mass spectrometry; SF-TAP of N-terminally tagged DNAAF1 from transfected HEK293 lysate: Strep-Tactin beads, desthiobiotin elution, then anti-FLAG M2 beads, FLAG peptide elution; mass spectrometry; three biological replicates
[1] = target: T1, SF-TAP-DNAAF1 mutant (p.Phe191) (human)
[2] = target: T2, SF-TAP-DNAAF1 wild-type (p.Leu191) (human)
[3] = target: T1, SF-TAP-DNAAF1 mutant (p.Phe191) (human); remark: listed apart in the source
[4] = target: T2, SF-TAP-DNAAF1 wild-type (p.Leu191) (human); remark: listed apart in the source

Molecule | binding [1] | binding [2] | binding [3] | binding [4]
EEF1A1 (from UniProt P68104 1-462) | binds | binds |  | 
TUBB4B (from UniProt P68371 1-445) | binds | binds |  | 
HSPA9 (from UniProt P38646 47-679) | binds | binds |  | 
HSPA8 (from UniProt P11142 1-646) | binds | binds |  | 
HSPA6 (from UniProt P17066 1-643) | binds | no binding |  | 
ATP5A1 (from UniProt P25705 44-553) | binds | binds |  | 
TUBA1B (from UniProt P68363 1-451) | binds | binds |  | 
TUBB (from UniProt P07437 1-444) | binds | binds |  | 
RUVBL1 (from UniProt Q9Y265 1-456) | binds | binds |  | 
HSPA1A (from UniProt P0DMV8 1-641) | binds | binds |  | 
HSPA5 (from UniProt P11021 19-654) | binds | binds |  | 
HSP90AA1 (from UniProt P07900 1-732) | binds | no binding |  | 
B1 |  |  | binds | no binding
